For 32 targets, log2 fold change results are on record in the supplement of paper PMC10849652.

Sequences of proteins named here, by UniProt entry; tags and fusion partners are left off. A change or cut given only in a name is not applied to a line headed by its entry.
UniProt Q12772: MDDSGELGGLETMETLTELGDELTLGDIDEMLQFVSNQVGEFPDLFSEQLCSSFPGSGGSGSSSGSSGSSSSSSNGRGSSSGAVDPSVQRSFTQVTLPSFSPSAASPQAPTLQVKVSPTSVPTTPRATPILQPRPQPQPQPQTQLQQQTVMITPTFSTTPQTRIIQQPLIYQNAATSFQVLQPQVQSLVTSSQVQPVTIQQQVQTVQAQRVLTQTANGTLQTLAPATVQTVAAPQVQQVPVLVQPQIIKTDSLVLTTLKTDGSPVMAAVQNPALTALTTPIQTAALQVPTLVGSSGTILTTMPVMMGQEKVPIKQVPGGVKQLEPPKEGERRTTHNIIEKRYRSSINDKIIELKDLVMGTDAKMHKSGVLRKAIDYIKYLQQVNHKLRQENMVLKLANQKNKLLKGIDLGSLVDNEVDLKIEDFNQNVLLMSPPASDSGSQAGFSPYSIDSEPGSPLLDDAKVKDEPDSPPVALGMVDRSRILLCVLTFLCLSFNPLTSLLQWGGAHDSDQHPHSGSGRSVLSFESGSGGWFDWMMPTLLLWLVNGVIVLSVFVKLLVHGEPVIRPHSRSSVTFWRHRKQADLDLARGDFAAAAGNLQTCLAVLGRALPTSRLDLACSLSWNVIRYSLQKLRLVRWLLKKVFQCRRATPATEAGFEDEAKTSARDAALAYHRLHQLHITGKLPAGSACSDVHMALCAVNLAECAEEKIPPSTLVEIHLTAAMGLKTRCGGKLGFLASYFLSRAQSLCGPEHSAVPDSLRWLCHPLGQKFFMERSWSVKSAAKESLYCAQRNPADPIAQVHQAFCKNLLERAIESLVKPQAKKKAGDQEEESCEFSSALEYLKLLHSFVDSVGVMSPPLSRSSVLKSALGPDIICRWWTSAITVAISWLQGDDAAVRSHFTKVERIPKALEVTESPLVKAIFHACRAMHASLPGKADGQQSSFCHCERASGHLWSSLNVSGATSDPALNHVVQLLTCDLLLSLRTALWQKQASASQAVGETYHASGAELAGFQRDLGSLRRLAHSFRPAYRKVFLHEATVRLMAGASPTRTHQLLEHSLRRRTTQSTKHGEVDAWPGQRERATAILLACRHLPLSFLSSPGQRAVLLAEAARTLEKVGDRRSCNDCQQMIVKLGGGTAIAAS
UniProt Q96SB4, whole entry, looked up: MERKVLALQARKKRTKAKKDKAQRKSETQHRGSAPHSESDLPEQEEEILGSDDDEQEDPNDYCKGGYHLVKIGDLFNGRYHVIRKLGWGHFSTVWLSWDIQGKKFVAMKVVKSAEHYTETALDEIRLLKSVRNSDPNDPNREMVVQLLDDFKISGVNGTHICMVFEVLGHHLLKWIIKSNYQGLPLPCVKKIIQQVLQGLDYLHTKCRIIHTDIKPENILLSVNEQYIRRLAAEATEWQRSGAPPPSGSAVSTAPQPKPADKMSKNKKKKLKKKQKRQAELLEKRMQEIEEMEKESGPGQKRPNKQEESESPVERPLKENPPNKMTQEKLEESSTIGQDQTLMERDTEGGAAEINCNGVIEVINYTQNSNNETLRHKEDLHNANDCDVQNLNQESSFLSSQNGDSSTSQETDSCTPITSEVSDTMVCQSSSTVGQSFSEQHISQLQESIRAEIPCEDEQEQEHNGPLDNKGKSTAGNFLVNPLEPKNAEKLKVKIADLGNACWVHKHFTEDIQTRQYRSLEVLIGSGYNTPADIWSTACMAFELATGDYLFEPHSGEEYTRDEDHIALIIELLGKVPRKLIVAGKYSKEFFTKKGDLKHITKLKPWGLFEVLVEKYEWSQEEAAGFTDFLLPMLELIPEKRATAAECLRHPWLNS
UniProt Q07955, whole entry, looked up: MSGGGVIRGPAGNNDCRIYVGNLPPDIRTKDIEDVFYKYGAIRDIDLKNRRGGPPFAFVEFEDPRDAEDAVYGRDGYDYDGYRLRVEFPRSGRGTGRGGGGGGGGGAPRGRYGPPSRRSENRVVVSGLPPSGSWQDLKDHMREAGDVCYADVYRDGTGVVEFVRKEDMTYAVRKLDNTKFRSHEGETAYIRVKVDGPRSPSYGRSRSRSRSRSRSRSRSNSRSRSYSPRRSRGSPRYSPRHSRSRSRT
UniProt Q9BVQ7: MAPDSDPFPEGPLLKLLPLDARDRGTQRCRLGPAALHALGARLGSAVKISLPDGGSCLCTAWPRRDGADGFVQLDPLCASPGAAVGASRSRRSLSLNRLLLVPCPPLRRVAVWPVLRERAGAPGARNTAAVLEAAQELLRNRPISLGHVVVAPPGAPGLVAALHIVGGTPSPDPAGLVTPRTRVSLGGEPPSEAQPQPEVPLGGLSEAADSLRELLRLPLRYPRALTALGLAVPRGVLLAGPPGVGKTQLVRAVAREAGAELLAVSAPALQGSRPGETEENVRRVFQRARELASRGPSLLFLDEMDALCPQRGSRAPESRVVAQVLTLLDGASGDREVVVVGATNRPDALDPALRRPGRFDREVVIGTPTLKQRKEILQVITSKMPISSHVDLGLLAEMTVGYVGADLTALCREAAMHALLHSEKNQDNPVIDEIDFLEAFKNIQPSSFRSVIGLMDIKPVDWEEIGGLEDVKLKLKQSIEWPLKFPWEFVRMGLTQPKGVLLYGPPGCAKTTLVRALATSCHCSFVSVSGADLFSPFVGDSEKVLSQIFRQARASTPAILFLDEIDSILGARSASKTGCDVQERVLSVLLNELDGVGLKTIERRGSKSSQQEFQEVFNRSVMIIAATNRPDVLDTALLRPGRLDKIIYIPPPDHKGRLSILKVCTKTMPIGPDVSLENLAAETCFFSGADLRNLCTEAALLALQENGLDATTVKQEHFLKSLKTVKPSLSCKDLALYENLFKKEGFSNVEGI
UniProt Q08AE8, whole entry, looked up: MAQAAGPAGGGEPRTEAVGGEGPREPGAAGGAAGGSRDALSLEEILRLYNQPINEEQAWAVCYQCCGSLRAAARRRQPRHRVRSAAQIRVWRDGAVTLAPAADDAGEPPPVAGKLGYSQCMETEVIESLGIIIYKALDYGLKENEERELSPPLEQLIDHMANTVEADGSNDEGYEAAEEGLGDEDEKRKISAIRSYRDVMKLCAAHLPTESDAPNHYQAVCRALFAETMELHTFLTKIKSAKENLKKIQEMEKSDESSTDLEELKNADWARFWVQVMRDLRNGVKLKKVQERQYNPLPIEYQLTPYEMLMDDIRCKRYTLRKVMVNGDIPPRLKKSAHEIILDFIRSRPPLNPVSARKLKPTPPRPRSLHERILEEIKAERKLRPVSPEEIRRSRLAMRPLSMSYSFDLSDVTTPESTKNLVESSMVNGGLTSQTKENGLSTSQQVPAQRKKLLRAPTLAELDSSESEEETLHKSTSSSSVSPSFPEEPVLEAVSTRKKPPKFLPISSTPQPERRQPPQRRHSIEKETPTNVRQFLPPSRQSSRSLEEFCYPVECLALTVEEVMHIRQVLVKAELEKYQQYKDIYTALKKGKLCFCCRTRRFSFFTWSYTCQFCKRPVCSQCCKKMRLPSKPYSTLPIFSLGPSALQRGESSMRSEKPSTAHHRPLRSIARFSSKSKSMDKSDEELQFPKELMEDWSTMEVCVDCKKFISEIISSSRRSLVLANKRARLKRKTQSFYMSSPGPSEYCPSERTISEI
UniProt P35270: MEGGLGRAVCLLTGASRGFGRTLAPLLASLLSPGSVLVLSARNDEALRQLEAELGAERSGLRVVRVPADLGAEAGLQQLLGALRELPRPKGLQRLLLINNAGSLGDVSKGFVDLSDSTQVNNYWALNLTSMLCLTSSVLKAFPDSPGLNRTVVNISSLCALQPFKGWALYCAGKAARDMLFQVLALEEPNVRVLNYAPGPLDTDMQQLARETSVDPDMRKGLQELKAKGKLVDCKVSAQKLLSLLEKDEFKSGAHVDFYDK
UniProt Q86XZ4: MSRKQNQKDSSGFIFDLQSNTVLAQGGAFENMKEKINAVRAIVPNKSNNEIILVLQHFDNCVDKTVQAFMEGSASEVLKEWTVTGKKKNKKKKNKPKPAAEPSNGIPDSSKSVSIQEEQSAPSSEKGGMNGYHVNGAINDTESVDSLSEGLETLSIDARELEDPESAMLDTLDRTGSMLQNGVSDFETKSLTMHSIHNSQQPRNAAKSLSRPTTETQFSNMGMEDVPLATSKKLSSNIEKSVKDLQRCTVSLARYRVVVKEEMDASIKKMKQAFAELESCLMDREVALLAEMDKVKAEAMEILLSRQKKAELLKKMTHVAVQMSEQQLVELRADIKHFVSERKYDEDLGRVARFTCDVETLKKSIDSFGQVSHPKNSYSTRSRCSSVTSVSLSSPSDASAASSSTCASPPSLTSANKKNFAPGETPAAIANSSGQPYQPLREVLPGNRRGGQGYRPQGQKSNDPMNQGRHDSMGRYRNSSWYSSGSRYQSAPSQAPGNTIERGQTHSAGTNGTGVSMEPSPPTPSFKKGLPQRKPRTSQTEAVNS
UniProt P61009: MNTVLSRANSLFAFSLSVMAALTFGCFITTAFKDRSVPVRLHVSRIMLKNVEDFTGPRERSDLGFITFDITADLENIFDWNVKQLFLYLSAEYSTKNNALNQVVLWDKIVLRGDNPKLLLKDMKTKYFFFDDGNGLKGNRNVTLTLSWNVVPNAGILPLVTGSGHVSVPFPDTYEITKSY
UniProt Q8WW59: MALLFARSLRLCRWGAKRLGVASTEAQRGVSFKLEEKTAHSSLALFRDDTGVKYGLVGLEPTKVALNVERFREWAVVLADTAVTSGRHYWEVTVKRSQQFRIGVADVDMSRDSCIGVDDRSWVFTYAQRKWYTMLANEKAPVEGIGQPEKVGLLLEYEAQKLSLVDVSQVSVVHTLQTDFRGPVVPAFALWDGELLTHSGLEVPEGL
UniProt Q04837: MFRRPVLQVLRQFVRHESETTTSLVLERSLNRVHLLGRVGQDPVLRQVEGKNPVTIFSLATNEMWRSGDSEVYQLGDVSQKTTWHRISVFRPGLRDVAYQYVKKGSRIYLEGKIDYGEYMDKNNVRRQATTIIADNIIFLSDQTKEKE
UniProt Q16842: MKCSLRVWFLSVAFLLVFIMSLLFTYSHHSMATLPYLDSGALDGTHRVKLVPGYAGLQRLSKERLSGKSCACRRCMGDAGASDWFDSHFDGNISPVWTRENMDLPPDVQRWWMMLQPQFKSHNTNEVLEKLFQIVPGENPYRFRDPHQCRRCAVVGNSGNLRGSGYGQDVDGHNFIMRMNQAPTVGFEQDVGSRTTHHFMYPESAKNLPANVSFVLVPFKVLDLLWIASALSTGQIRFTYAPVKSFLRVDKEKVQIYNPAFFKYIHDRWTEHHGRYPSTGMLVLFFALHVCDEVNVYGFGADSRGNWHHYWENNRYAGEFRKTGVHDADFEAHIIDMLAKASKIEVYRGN
UniProt O76094: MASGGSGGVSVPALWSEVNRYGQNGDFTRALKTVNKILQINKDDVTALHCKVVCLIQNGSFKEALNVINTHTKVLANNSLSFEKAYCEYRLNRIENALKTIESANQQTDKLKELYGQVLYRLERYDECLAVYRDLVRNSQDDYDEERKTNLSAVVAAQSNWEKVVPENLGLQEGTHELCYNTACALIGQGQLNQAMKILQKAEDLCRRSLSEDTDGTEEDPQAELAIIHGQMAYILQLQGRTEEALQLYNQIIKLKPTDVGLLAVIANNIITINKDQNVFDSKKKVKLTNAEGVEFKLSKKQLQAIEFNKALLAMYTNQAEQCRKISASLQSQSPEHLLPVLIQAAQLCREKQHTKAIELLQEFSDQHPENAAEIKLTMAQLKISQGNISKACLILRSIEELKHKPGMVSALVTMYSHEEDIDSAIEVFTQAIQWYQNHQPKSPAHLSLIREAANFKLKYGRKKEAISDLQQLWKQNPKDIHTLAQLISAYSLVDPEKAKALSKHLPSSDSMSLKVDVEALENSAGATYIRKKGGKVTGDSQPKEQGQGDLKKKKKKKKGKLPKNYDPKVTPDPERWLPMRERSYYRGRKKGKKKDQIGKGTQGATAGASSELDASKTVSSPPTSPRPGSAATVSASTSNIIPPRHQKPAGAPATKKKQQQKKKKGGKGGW
UniProt Q9NZD8: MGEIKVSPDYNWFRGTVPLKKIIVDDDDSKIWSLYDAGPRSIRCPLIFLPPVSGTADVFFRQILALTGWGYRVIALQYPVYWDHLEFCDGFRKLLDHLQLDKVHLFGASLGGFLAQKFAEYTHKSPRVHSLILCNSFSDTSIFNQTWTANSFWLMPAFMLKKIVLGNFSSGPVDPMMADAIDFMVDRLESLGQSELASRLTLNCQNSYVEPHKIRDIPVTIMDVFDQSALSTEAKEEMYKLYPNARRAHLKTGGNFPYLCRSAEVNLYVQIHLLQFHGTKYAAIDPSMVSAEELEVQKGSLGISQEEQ
UniProt Q9GZT4: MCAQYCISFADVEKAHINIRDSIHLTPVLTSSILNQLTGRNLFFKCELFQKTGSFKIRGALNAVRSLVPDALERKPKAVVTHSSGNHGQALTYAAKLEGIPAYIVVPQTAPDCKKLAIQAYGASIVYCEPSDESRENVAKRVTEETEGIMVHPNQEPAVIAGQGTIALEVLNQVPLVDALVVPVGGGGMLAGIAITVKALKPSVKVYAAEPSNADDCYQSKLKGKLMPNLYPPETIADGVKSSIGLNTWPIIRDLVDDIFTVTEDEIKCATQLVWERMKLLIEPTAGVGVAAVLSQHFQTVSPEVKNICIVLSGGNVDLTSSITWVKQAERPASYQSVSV

The list shows a part of the results.

Compound in one assay: Cc1cc(Nc2cc(CN3CCOCC3)c3nc(C)c(Cc4ccc(Cl)cc4F)n3n2)n[nH]1 [gandotinib]
The assay is described as follows: log2 fold change, soluble protein after heating vs DMSO (PISA); higher = thermal stabilisation; K562 lysate, 10 uM; active = over 0.2 and 3.5 SD of the protein, either way, in both replicates (recomputed). The gist of the method:
(§1)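 Dounce homogenisation of K562 pellets in PBS pH 7.4 with 1 mM MgCl2 produced a crude extract, used at 1 mg/mL protein. Exposure to 10 μM compound lasted 30 min, and aliquots were then heated for 3 min across 48°C-58°C, pooled and brought to 0.5% NP-40 at 4°C. The supernatant after 21,000xg for 90 min was quantified by TMTpro 16plex LC-MS/MS with channel sums equalised. Duplicate values are given as log-two fold change in thermal stability relative to solvent controls.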
For the target SREBF2 (UniProt Q12772), the log2 fold change is inactive: 0.08.
For the target SPDL1 (UniProt Q96EA4), the log2 fold change was inactive: 0.046.
On the same count and under the same terms, under SSU72 (UniProt Q9NP77) stands inactive: 0.134; under SRPK1 (UniProt Q96SB4), inactive: 0.17.
Same read-out and setting: then STAMBP (UniProt O95630), with inactive: -0.047.
On the same count and under the same terms, under SPTLC2 (UniProt O15270) stands inactive: 0.074.
Turning to SRSF4 (UniProt Q08170), the log2 fold change is inactive: -0.133.
Still for that read-out and setting: under SRSF1 (UniProt Q07955) stands inactive: -0.066.
Regarding SRSF6 (UniProt Q13247), the log2 fold change is inactive: -0.143.
With SPTBN2 (UniProt O15020), the log2 fold change is inactive: 0.018.
As for SPATA5L1 (UniProt Q9BVQ7), the log2 fold change is inactive: -0.076.
On the same count and under the same terms, then STAU1 (UniProt O95793), with inactive: -0.086; and SPIRE1 (UniProt Q08AE8), with inactive: 0.128.
The same measure, in the same setting: under SPR (UniProt P35270) stands active: 0.467; under SPATS2 (UniProt Q86XZ4), inactive: 0.145.
Regarding SPATA5 (UniProt Q8NB90), the log2 fold change is inactive: -0.13.
Regarding SRP68 (UniProt Q9UHB9), the log2 fold change was inactive: -0.145.
The same measure, in the same setting: then SPCS3 (UniProt P61009), with inactive: -0.116; and SPRYD4 (UniProt Q8WW59), with inactive: 0.047.
Still for that read-out and setting: then SSBP1 (UniProt Q04837), with inactive: 0.046.
On the same count and under the same terms, under SRBD1 (UniProt Q8N5C6) stands inactive: 0.118; under ST3GAL2 (UniProt Q16842), inactive: 0.127; under SRCAP (UniProt Q6ZRS2), inactive: -0.084.
As for SSNA1 (UniProt O43805), the log2 fold change was inactive: 0.061.
On the same count and under the same terms, under SRP72 (UniProt O76094) stands inactive: -0.046; under SPAST (UniProt Q9UBP0), inactive: -0.114.
Still for that read-out and setting: then SPG21 (UniProt Q9NZD8), with inactive: -0.089; and SRRM2 (UniProt Q9UQ35), with inactive: 0.02.
As to SRR (UniProt Q9GZT4), the log2 fold change was inactive: -0.026.
Consider SPECC1L (UniProt Q69YQ0), for which the log2 fold change was inactive: 0.108.
With SSR1 (UniProt P43307), the log2 fold change is inactive: 0.061.
On the same count and under the same terms, then SRF (UniProt P11831), with inactive: 0.009.

Compound in a further assay: Cc1cc(Nc2cc(N3CCN(C)CC3)nc(Sc3ccc(NC(=O)C4CC4)cc3)n2)n[nH]1 [tozasertib]
The description is as above. The gist of the method:
as §1
For SREBF2 (UniProt Q12772), the log2 fold change is inactive: 0.043.
Turning to SPDL1 (UniProt Q96EA4), the log2 fold change was inactive: 0.049.
Still for that read-out and setting: under SSU72 (UniProt Q9NP77) stands inactive: -0.074.
Same read-out and setting: then SRPK1 (UniProt Q96SB4), with inactive: -0.016.
On the same count and under the same terms, then STAMBP (UniProt O95630), with inactive: -0.005.
Take SPTLC2 (UniProt O15270): the log2 fold change is inactive: 0.015.
The same measure, in the same setting: under SRSF4 (UniProt Q08170) stands inactive: 0.055; under SRSF1 (UniProt Q07955), inactive: 0.005.
On to SRSF6 (UniProt Q13247), for which the log2 fold change is inactive: 0.014.
With SPTBN2 (UniProt O15020), the log2 fold change was inactive: 0.005.
Same read-out and setting: then SPATA5L1 (UniProt Q9BVQ7), with inactive: 0.013; and STAU1 (UniProt O95793), with inactive: 0.014.
Same read-out and setting: under SPIRE1 (UniProt Q08AE8) stands inactive: -0.023.
SPR (UniProt P35270): the log2 fold change is inactive: 0.025.
Still for that read-out and setting: under SPATS2 (UniProt Q86XZ4) stands inactive: -0.062; under SPATA5 (UniProt Q8NB90), inactive: 0.02.
For SRP68 (UniProt Q9UHB9), the log2 fold change is inactive: -0.02.
Same read-out and setting: then SPCS3 (UniProt P61009), with inactive: 0.049; and SPRYD4 (UniProt Q8WW59), with inactive: 0.005; and SSBP1 (UniProt Q04837), with inactive: 0.012.
For SRBD1 (UniProt Q8N5C6), the log2 fold change was inactive: -0.05.
Same read-out and setting: then ST3GAL2 (UniProt Q16842), with inactive: 0.044; and SRCAP (UniProt Q6ZRS2), with inactive: 0.06.
Still for that read-out and setting: under SSNA1 (UniProt O43805) stands inactive: 0.045; under SRP72 (UniProt O76094), inactive: -0.017.
On the same count and under the same terms, then SPAST (UniProt Q9UBP0), with inactive: 0.072; and SPG21 (UniProt Q9NZD8), with inactive: 0.006.
As for SRRM2 (UniProt Q9UQ35), the log2 fold change is inactive: -0.012.
The same measure, in the same setting: under SRR (UniProt Q9GZT4) stands inactive: -0.059; under SPECC1L (UniProt Q69YQ0), inactive: -0.008.
Still for that read-out and setting: then SSR1 (UniProt P43307), with inactive: 0.048; and SRF (UniProt P11831), with inactive: -0.137.

Compound in a further assay: Cc1ccc(-n2nc(C(C)(C)C)cc2NC(=O)Nc2ccc(OCCN3CCOCC3)c3ccccc23)cc1 [doramapimod]
The assay is described as above. The gist of the method:
as §1
On to SREBF2 (UniProt Q12772), for which the log2 fold change was inactive: 0.065.
Consider SPDL1 (UniProt Q96EA4), for which the log2 fold change is inactive: -0.008.
Take SSU72 (UniProt Q9NP77): the log2 fold change was inactive: 0.057.
Still for that read-out and setting: under SRPK1 (UniProt Q96SB4) stands inactive: 0.233.
Still for that read-out and setting: under STAMBP (UniProt O95630) stands inactive: -0.013; under SPTLC2 (UniProt O15270), inactive: 0.067.
Regarding SRSF4 (UniProt Q08170), the log2 fold change was inactive: 0.041.
On the same count and under the same terms, under SRSF1 (UniProt Q07955) stands inactive: 0.012.
On the same count and under the same terms, under SRSF6 (UniProt Q13247) stands inactive: 0.021.
Regarding SPTBN2 (UniProt O15020), the log2 fold change was inactive: 0.01.
The same measure, in the same setting: under SPATA5L1 (UniProt Q9BVQ7) stands inactive: -0.035.
On the same count and under the same terms, under STAU1 (UniProt O95793) stands inactive: 0.056.
On the same count and under the same terms, then SPIRE1 (UniProt Q08AE8), with inactive: 0.151; and SPR (UniProt P35270), with inactive: -0.06.
For SPATS2 (UniProt Q86XZ4), the log2 fold change was inactive: -0.126.
As for SPATA5 (UniProt Q8NB90), the log2 fold change is inactive: -0.017.
Regarding SRP68 (UniProt Q9UHB9), the log2 fold change is inactive: 0.066.
Still for that read-out and setting: under SPCS3 (UniProt P61009) stands inactive: 0.002; under SPRYD4 (UniProt Q8WW59), inactive: 0.008; under SSBP1 (UniProt Q04837), inactive: -0.006.
The same measure, in the same setting: then SRBD1 (UniProt Q8N5C6), with inactive: 0.018; and ST3GAL2 (UniProt Q16842), with inactive: 0.026; and SRCAP (UniProt Q6ZRS2), with inactive: 0.037.
On the same count and under the same terms, under SSNA1 (UniProt O43805) stands inactive: 0.019.
For SRP72 (UniProt O76094), the log2 fold change is inactive: 0.033.
The same measure, in the same setting: under SPAST (UniProt Q9UBP0) stands inactive: 0.028; under SPG21 (UniProt Q9NZD8), inactive: 0.042.
The same measure, in the same setting: under SRRM2 (UniProt Q9UQ35) stands inactive: 0.034.
On to SRR (UniProt Q9GZT4), for which the log2 fold change was inactive: 0.033.
Regarding SPECC1L (UniProt Q69YQ0), the log2 fold change is inactive: 0.015.
The same measure, in the same setting: then SSR1 (UniProt P43307), with inactive: -0.028.
Still for that read-out and setting: then SRF (UniProt P11831), with inactive: -0.024.
